From publication PMC7456924
No constants are given. Whether binding was seen depends on the method and setting. For some of these results: In cells and extracts the contact can be indirect. Some binding calls cover weakened binding; strength is not graded here. Where a sequence is shown, tags or fusion partners need not be part of it.

Experiments:
[1] = molecular target: T1, APS1 (ATP sulfurylase), BiFC fusion (A. thaliana) (UniProt Q9LIK9); assay: split reporter; BiFC in planta: N. benthamiana leaves agroinfiltrated with pSITE-nEYFP-C1 and pSITE-cEYFP-C1 fusions, confocal microscopy three days after agroinfiltration
T1 sequence: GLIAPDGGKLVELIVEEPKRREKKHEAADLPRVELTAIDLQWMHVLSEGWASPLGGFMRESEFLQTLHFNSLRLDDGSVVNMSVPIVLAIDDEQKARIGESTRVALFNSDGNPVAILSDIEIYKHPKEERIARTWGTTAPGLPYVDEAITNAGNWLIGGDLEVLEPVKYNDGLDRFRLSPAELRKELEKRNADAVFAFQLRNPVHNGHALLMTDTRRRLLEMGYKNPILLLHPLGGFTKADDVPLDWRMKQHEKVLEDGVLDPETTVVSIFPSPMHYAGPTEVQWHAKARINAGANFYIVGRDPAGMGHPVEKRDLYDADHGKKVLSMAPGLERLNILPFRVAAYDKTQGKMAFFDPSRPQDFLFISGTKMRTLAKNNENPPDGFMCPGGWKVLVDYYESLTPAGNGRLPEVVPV

[2] = molecular target: T2, CAT2 (peroxisomal catalase), BiFC fusion (A. thaliana) (UniProt P25819); assay: as above
T2 sequence: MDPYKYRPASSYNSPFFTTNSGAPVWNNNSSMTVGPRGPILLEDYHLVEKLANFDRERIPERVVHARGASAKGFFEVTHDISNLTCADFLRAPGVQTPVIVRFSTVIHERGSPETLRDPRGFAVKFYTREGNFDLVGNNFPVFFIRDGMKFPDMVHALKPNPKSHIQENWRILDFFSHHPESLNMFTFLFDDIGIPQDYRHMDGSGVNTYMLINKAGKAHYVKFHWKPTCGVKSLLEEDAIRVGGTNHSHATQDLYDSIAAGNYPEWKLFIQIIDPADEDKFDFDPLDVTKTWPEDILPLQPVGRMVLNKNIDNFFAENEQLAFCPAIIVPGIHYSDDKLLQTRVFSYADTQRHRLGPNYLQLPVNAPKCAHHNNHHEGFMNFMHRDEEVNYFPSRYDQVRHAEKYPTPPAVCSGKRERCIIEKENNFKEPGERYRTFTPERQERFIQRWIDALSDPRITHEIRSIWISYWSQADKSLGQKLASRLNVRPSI

[3] = molecular target: T3, LSU2, BiFC fusion (nYFP-LSU2 or cYFP-LSU2) (A. thaliana) (UniProt Q9FIR9); assay: as above
T3 sequence: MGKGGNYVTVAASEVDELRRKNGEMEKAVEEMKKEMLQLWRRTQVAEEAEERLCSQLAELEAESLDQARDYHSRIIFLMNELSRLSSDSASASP

[4] = molecular target: T4, LSU4, BiFC fusion (nYFP-LSU4 or cYFP-LSU4) (A. thaliana) (UniProt Q8L8S2); assay: as above
T4 sequence: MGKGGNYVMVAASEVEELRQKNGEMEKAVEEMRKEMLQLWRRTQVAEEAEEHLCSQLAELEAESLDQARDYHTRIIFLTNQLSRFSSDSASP

[5] = molecular target: T5, NBR1 (selective autophagy cargo receptor), BiFC fusion (A. thaliana) (UniProt Q9SB64); assay: as above
T5 sequence: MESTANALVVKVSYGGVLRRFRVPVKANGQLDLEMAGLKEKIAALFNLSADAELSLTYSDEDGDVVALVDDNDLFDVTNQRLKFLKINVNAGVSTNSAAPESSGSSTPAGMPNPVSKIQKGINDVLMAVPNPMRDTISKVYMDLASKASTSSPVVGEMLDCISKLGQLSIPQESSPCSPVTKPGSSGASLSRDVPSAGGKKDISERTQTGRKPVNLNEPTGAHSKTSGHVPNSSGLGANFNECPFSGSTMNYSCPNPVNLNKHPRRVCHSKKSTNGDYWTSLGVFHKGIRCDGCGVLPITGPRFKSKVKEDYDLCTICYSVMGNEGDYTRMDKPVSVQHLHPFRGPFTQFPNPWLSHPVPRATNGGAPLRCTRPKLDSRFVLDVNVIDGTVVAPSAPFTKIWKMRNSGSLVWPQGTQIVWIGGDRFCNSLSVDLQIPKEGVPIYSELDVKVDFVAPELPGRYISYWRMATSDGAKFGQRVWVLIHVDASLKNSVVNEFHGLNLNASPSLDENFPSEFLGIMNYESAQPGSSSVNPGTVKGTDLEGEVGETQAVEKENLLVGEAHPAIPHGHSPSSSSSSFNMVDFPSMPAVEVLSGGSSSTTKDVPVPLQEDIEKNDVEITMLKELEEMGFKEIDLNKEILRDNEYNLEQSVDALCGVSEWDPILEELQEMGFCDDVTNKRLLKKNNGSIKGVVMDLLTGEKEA

[6] = molecular target: T6, RAF2/SDIRIP1, BiFC fusion (A. thaliana) (UniProt Q9LU63); assay: as above
T6 sequence: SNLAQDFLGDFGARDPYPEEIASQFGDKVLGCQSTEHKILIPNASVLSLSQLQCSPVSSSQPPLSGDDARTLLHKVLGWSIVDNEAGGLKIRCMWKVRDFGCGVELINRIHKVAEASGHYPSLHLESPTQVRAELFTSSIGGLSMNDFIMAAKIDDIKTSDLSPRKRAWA

[7] = molecular target: T7, CAT2 (peroxisomal catalase), yeast two-hybrid fusion (A. thaliana) (UniProt P25819); assay: two-hybrid; Yeast Y2HGold or PJ69-4a; pDEST22 (GAL4 AD) and pDEST32 (GAL4 BD); growth on -LTH + 3 mM or 5 mM 3-AT or on -LTA; 30°C, or room temperature for longer exposures
T7 sequence: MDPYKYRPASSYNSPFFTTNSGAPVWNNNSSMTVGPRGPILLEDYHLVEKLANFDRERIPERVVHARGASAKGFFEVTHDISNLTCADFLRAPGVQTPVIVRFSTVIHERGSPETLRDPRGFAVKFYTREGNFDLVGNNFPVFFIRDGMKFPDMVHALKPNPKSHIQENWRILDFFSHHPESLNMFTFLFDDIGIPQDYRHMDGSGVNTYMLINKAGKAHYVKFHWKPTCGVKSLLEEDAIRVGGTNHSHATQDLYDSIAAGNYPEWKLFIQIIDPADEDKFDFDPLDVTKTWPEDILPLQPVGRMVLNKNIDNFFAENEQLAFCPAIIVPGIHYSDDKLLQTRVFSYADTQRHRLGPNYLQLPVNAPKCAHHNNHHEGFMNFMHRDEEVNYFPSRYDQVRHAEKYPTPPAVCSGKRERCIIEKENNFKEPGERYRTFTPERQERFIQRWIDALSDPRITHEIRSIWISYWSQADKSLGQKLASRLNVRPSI

[8] = molecular target: T8, LSU1 (RESPONSE TO LOW SULFUR 1), yeast two-hybrid fusion (A. thaliana) (UniProt Q9SCK1); assay: as above
T8 sequence: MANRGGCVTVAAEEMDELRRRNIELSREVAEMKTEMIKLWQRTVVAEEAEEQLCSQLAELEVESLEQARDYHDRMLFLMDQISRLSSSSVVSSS

[9] = molecular target: T9, LSU2 (RESPONSE TO LOW SULFUR 2), yeast two-hybrid fusion (A. thaliana) (UniProt Q9FIR9); assay: as above
T9 sequence: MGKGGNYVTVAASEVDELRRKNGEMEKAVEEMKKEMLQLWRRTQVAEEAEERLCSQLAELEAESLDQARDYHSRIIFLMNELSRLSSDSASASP

[10] = molecular target: T10, NBR1 (selective autophagy cargo receptor), yeast two-hybrid fusion (A. thaliana) (UniProt Q9SB64); assay: as above
T10 sequence: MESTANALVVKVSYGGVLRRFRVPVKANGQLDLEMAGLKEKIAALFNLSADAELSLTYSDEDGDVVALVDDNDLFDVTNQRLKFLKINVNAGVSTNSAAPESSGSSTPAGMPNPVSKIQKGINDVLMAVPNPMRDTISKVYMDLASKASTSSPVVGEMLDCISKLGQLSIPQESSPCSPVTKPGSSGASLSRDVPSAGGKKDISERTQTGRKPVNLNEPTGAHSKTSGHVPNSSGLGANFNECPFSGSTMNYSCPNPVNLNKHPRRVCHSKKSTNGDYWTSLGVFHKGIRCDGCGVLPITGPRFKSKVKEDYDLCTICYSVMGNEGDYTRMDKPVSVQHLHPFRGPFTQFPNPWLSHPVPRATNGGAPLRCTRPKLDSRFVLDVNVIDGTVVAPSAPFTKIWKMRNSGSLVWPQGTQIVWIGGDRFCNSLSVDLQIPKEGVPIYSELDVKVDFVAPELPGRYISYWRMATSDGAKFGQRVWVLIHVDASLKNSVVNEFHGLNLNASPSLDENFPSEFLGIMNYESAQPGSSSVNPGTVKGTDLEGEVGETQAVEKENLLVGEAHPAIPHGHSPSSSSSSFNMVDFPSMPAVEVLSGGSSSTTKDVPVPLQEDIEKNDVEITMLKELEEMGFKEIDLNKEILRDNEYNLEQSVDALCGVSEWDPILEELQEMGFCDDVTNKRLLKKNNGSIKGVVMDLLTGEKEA

[11] = molecular target: T11, RAF2/SDIRIP1, yeast two-hybrid fusion (A. thaliana) (UniProt Q9LU63); assay: as above
T11 sequence: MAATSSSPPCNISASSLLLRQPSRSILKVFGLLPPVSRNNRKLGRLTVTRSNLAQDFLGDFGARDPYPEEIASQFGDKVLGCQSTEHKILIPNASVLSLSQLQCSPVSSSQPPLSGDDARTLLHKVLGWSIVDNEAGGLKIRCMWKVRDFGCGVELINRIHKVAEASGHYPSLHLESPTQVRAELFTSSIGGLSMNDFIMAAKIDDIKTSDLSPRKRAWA

[12] = molecular target: T12, APS1 (ATP sulfurylase), yeast two-hybrid fusion (A. thaliana), Q9LIK9; assay: as above; settings: remark: other sources report otherwise
T12 chain: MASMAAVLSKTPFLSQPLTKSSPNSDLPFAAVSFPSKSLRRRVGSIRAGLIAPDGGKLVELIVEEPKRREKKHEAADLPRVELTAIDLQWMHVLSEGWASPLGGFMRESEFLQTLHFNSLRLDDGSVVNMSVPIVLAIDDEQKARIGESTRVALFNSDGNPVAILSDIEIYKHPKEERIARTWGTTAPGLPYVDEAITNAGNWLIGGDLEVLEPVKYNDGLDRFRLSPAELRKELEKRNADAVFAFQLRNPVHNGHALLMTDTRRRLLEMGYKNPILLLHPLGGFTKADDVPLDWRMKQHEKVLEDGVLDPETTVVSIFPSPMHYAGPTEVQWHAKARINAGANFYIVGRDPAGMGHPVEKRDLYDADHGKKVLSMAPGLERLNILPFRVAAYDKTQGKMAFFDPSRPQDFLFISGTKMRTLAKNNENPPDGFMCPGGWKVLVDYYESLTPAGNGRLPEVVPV

Row | Binder | binding [1] | binding [2] | binding [5] | binding [6] | binding [12] | also measured
1 | LSU2, BiFC fusion (nYFP-LSU2 or cYFP-LSU2) (protein, UniProt Q9FIR9 1-94) MGKGGNYVTVAASEVDELRRKNGEMEKAVEEMKKEMLQLWRRTQVAEEAEERLCSQLAELEAESLDQARDYHSRIIFLMNELSRLSSDSASASP | binds | binds | binds | binds |  | binding [3]: binds; binding [4]: binds
2 | LSU2 (RESPONSE TO LOW SULFUR 2), yeast two-hybrid fusion (protein, UniProt Q9FIR9 1-94) MGKGGNYVTVAASEVDELRRKNGEMEKAVEEMKKEMLQLWRRTQVAEEAEERLCSQLAELEAESLDQARDYHSRIIFLMNELSRLSSDSASASP |  |  |  |  |  | binding [7]: binds weakly; binding [8]: binds; binding [9]: binds weakly; binding [10]: binds; binding [11]: binds weakly
3 | LSU3 (RESPONSE TO LOW SULFUR 3), yeast two-hybrid fusion (protein, UniProt Q9SCK2 1-97) MGKGGGYVTVAAEEVEELRRRNGELEREMEEMKKEMVQLWRRTVVAEEAEERLCSQLAELEVESLDQARDYHSRIVFLMDQISRLSSSSLEVVVTNS |  |  |  |  |  | binding [7]: binds; binding [8]: binds; binding [10]: binds; binding [11]: binds
4 | LSU3, BiFC fusion (nYFP-LSU3 or cYFP-LSU3) (protein, UniProt Q9SCK2 1-97) MGKGGGYVTVAAEEVEELRRRNGELEREMEEMKKEMVQLWRRTVVAEEAEERLCSQLAELEVESLDQARDYHSRIVFLMDQISRLSSSSLEVVVTNS | binds | binds | binds | binds |  | binding [4]: binds
5 | LSU4, BiFC fusion (nYFP-LSU4 or cYFP-LSU4) (protein, UniProt Q8L8S2 1-92) MGKGGNYVMVAASEVEELRQKNGEMEKAVEEMRKEMLQLWRRTQVAEEAEEHLCSQLAELEAESLDQARDYHTRIIFLTNQLSRFSSDSASP | binds | binds | binds | binds |  | 
6 | LSU1 (RESPONSE TO LOW SULFUR 1), yeast two-hybrid fusion, Q9SCK1 1-94 (protein) MANRGGCVTVAAEEMDELRRRNIELSREVAEMKTEMIKLWQRTVVAEEAEEQLCSQLAELEVESLEQARDYHDRMLFLMDQISRLSSSSVVSSS |  |  |  |  | no binding | 
7 | LSU2 (RESPONSE TO LOW SULFUR 2), yeast two-hybrid fusion, Q9FIR9 1-94 (protein) MGKGGNYVTVAASEVDELRRKNGEMEKAVEEMKKEMLQLWRRTQVAEEAEERLCSQLAELEAESLDQARDYHSRIIFLMNELSRLSSDSASASP |  |  |  |  | no binding | 
8 | LSU3 (RESPONSE TO LOW SULFUR 3), yeast two-hybrid fusion, Q9SCK2 1-97 (protein) MGKGGGYVTVAAEEVEELRRRNGELEREMEEMKKEMVQLWRRTVVAEEAEERLCSQLAELEVESLDQARDYHSRIVFLMDQISRLSSSSLEVVVTNS |  |  |  |  | no binding | 
9 | LSU4 (RESPONSE TO LOW SULFUR 4), yeast two-hybrid fusion, Q8L8S2 1-92 (protein) MGKGGNYVMVAASEVEELRQKNGEMEKAVEEMRKEMLQLWRRTQVAEEAEEHLCSQLAELEAESLDQARDYHTRIIFLTNQLSRFSSDSASP |  |  |  |  | no binding | 
